Screen size: about 53,000 sequences; about 3,700 (7%) were called active.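 The calls were made as follows: active = gene knockdowns whose robust z-score for IL-1 alpha signal is at least 2 or at most -2, so actives lie on both sides; inactive = the rest.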 The list shows a part of the results.
Assay: Components of the Cytosolic LPS Sensing Pathway: Gene Identification via Genome-wide siRNA Screen;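 also: robust z of the log signal after scaling to non-targeting control siRNA wells of the plate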
Conditions: RAW264.7 macrophages, IL-1a HTRF, actives lie on both sides, screened at 100 nM (by protocol), cells primed 5 h with Pam3CSK4 first
In short: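 Using IL-1a HTRF as read-out, the screen measured release from RAW264.7 cells after 48h siRNA knockdown (100 nM), 5 h Pam3CSK4 priming and 24 h cytosolic LipidA. Values were expressed relative to negative-control wells as robust z-scores.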

Row | Sequence | z-score
1 | GGGUAUGGUGACAGAUAAATT against Cpz | inactive: 0.372
2 | GGUGAUGGUAACUCAACGATT against Edc4 | inactive: -0.154
3 | GGUUUUCAAAGAUCUCUAGTT against Efnb2 | inactive: 0.869
4 | GGCAUGAUCAUAAUUGGAUTT against Mto1 | inactive: -0.179
5 | CCAAUUUAUACUUAGUGCCTT against Cand2 | inactive: -0.86
6 | CCUGGGUUGGAUAAAACUUTT against 6030458C11Rik | inactive: -0.0611
7 | GGAGAUGCCCAAUGUUUUCTT against Ehd1 | inactive: 0.82
8 | GGGAAUCGAGAAAAUGGAUTT against Prkg2 | inactive: -0.548
9 | GCUAGGAAUGCUGAACACUTT against Sh3gl3 | inactive: 0.456
10 | CGGUUGAAGAUUGAUUUUGTT against Gnai3 | inactive: -0.266
11 | GGAUAACAACGACAUUUCATT against Col6a1 | inactive: 1.8
12 | GGUUUUGGACCAGAUGAGCTT against Abi3 | inactive: 0.0276
13 | GGUAAAGGGUUCUUGGACATT against Eps15l1 | inactive: -0.156
14 | CCUGUAUGGGCAUGAGUUUTT against Ttc8 | inactive: 0.508
15 | GGUGUAAGAGCUUUGGCCUTT against Gm5420 | active: 2.35
16 | GCUACAAUGACGCAGAGACTT against Kif5a | inactive: -1.21
17 | GAAACGGCAGAUUGCUGCUTT against Vmn2r122 | inactive: 0.885
18 | CCAAAAGCAUAUCAGUCGGTT against Olfr1122 | inactive: 1.48
19 | GAGAUGGAGCCUGGAAACUTT against Olfr480 | inactive: -1.51
20 | GGCUCAAGGCUGAGUUUCATT against En2 | inactive: 0.704
21 | GCAAGGAUUACCUAUAGGATT against Rbm12b1 | inactive: 0.638
22 | CCUAAUCAACAACUUGGAGTT against Ugcg | inactive: 0.217

Row | Sequence | z-score
23 | GCAAGUGAUGAACCAGUUCTT against Morc2a | inactive: 0.551
24 | GGUGAUCUGAUAGUCAGAUTT against Mtmr10 | inactive: 0.724
25 | GGAAAAGAUCAACCAUUAUTT against Ccdc54 | inactive: -0.642
26 | GGGCUACUUCCUGACUAAATT against Ube2s | inactive: -0.505
27 | GGAGAUCCGUUCAAGGGUUTT against Olfr557 | inactive: 0.73
28 | GCCGGAUUGAGAUCUCUAUTT against 1500015L24Rik | inactive: 0.734
29 | GGACGAAUGAGCAUAGCCUTT against Etl4 | inactive: 1.96
30 | GGACAAGAAAAAGAAACGATT against Nkap | inactive: -0.282
31 | GGCAGCUUUUUACACUAGUTT against Vmn1r23 | inactive: -0.345
32 | GAUACAUCAACACACUGACTT against Ppy | inactive: 0.217
33 | GGUCAUUCACAAGUCCUUUTT against Serpinb6b | inactive: 0.863
34 | CCGCUUGGCUAGCUUUAUATT against Dzip1 | inactive: 0.269
35 | GCUAUCGAAGGAAUAAUACTT against Rnf115 | inactive: -0.434
36 | GGCAGUUAGACUGGUGUACTT against Foxa3 | inactive: 1.3
37 | GGUAGUUUAAAAUCUGUGATT against St6gal1 | inactive: -0.556
38 | GGGCCGAAAUGAAUGAACUTT against Inhba | inactive: 0.618
39 | GGUUAAACUGUGAAUCCAUTT against Setx | inactive: 1.13
40 | CGAGCGAUUCCCAUACAAUTT against Cyp2c23 | inactive: 0.0396
41 | GGCUUAGUAAGUGCAAAUATT against Eef1akmt2 | inactive: 0.237
42 | GGUGCAGCCACGAAAACAUTT against Lmln | inactive: -0.921
43 | GGAAGAGACACUUUGUCUATT against 4930519G04Rik | inactive: -0.389
44 | GGUCCAGAUAGACAUCCUGTT against Ralb | inactive: 0.169

Row | Sequence | z-score
45 | CCUAUAAAGCAGCAACUGCTT against Parm1 | inactive: -0.924
46 | GCUUGUGGUAAAUGAGGAGTT against 1700024G13Rik | inactive: 1.4
47 | CGGGAUAGACUAUAAGACUTT against Rab40c | inactive: 0.612
48 | GGGCUAAAGCCUUCAACACTT against Olfr923 | inactive: 0.315
49 | GGGAAUCUCUGUAUGUUGUTT against Letm1 | inactive: 0.617
50 | GGAUGAUUCAUUCAGUGAUTT against Adcy9 | inactive: 0.918
51 | GGAUAAGGUAGAAUUACUGTT against Slc26a4 | active: 3.06
52 | CGACUAGAGUUGUGUGAUATT against Uqcrh | inactive: 0.834
53 | GGGACAGAUACAGUUCAUGTT against Zan | inactive: -0.114
54 | GUCAAGAAUAUUAUGACCCTT against Vamp8 | inactive: 0.516
55 | GCAAUCACUCUGCAGUGUCTT against Olfr1042 | inactive: -0.0202
56 | GCCCUUUUACGGCAACAGATT against C2cd5 | inactive: -1.48
57 | GGAAAUGCCACCAAAGAACTT against Slc38a11 | inactive: -0.168
58 | GCAAACAUACGAUGUGAGGTT against 1700019N19Rik | inactive: -1.92
59 | CCUUUCAUACCUUAGGUUATT against Slc25a44 | inactive: -0.42
60 | GGCCUUAAAAGGAAAACUATT against Sftpd | inactive: 0.377
61 | GCUAAUAGUCAUUAAACUGTT against Zfp2 | inactive: 1.76
62 | GGACAAGUACAGGUUCCUATT against Vrk3 | inactive: 0.536
63 | GGAUUUCGACAGCAAACUCTT against Efhd2 | inactive: 0.769
64 | GGUCACUAAAUCCUGUACATT against Vmn1r29 | inactive: 0.226
65 | GGCGCACAUAUCUGAUCUUTT against Tmed3 | inactive: 0.83
66 | CCAGUAUCACUGGAUCAUATT against Sec22c | inactive: -0.0645

Row | Sequence | z-score
67 | GGUUUGUGACCAAUAAAACTT against Elk3 | inactive: -0.417
68 | GGCUUCCUCCACUCUUUCCTT against Rhbg | inactive: -1.81
69 | GGGUGACAACCAAAGACUGTT against Mill1 | inactive: 0.174
70 | GAUUUACUCUGGACAUUUUTT against Hgsnat | inactive: -0.822
71 | GGAAAAUGUCCCACUUUUATT against Olfr70 | inactive: -0.926
72 | GGAGCCCUUUCUACUGGUGTT against Snn | inactive: -0.404
73 | CCAGCUAGAAAAUCUCUCCTT against Cnn2 | inactive: 0.0032
74 | GGACAACUCAGAUUGGACUTT against Adprhl2 | inactive: -1.22
75 | GGUUGUGCUGUGAACAGAGTT against Atp23 | inactive: -0.176
76 | GGAAUCUUGUUAGCUAUGGTT against Olfr615 | inactive: 0.72
77 | GGGAUUCCUGGACAACAUUTT against Glce | inactive: 0.616
78 | GGUGGAUGAAGUAAACCAGTT against Chrna3 | inactive: 1.42
79 | GGACCUGGAUCUAUCCUACTT against Lrfn1 | inactive: -0.969
80 | GCCUGGAGACUACAUAUCCTT against Cdc20 | active: -2.09
81 | GGAAGUUUUGAAACUUGUUTT against Gabrp | inactive: -0.258
82 | CCUUCCAGUAGACAUGGAATT against Zmym3 | inactive: 1.13
83 | GCGAAUGUAGUGUAUUAUGTT against Prkd1 | inactive: 0.259
84 | GGGCGUAAUUAAGAAGGAATT against Mapk10 | inactive: 0.193
85 | GGAUGAAAAAGCUCACUUUTT against Srms | inactive: 1.09
86 | GCAAGUUGUCAAAUCUAAATT against Tspan13 | inactive: 1.42
87 | GGUCAGAACAACGACAAGUTT against Tpcn1 | inactive: -0.563
88 | GGACAUGAAGAUCAAGUCCTT against Rps2 | inactive: -0.109

Rewritten as labelled records: entries from further up
GGAAGUUUUGAAACUUGUUTT against Gabrp
  z-score: inactive: -0.258
CCUUCCAGUAGACAUGGAATT against Zmym3
  z-score: inactive: 1.13
GCGAAUGUAGUGUAUUAUGTT against Prkd1
  z-score: inactive: 0.259

The list goes on.

Row | Sequence | z-score
89 | GGCUUUUUCUACUUGUUCUTT against Olfr768 | inactive: 1.44
90 | GGUGGAAGGCACUUUUAUUTT against Zmpste24 | inactive: 0.172
91 | GCUCCUAUGCAAACAUUGCTT against Olfr1390 | inactive: 0.489
92 | CCUCAAUGAGGUCCUGAUGTT against Olfr108 | inactive: -0.408
93 | GGCAUGAAACCUCCAAAGCTT against 1520401A03Rik | inactive: 0.643
94 | GGACUUUAUCAAGGAGUAATT against Slc25a32 | inactive: -1.56
95 | GCCUAUCUACGACCUCAUCTT against Kel | inactive: -0.768
96 | CCUGUCUUCUCUCUUGUAUTT against Zswim4 | inactive: -1.95
97 | GCGAUGUGGACAGAAGUACTT against Cyba | inactive: 1.01
98 | GCCUCAUUAUAAAUCACACTT against Bclaf3 | inactive: 0.752
99 | GGCACGAGUUUGACAGUGCTT against Tmem140 | inactive: 0.494
100 | GGUGUCUCAUCAUGUUUCCTT against Ccl28 | inactive: 1.13
101 | GGCACAGACUAAGGUAUAGTT against Adra2c | inactive: -1.51
102 | CGAAACGAGGAACUUUUAATT against Ccdc96 | inactive: -1.83
103 | GGAAGUUGGUGAGCUGGUATT against Ccl17 | active: 2.4
104 | GGGAGCAGCGAGAUGAAUUTT against Ano2 | inactive: 0.126
105 | GGUGGAAGACAAGAGGAUATT against Sytl5 | inactive: -0.474
106 | CGUACAAAUAUGAUUCGAATT against Ocrl | inactive: 1.83

Some of the entries above in a different format.
Row	Sequence	z-score
69	GGGUGACAACCAAAGACUGTT against Mill1	inactive: 0.174
70	GAUUUACUCUGGACAUUUUTT against Hgsnat	inactive: -0.822
71	GGAAAAUGUCCCACUUUUATT against Olfr70	inactive: -0.926
72	GGAGCCCUUUCUACUGGUGTT against Snn	inactive: -0.404
73	CCAGCUAGAAAAUCUCUCCTT against Cnn2	inactive: 0.0032
74	GGACAACUCAGAUUGGACUTT against Adprhl2	inactive: -1.22
75	GGUUGUGCUGUGAACAGAGTT against Atp23	inactive: -0.176

Source: PubChem BioAssay AID1508600 (Functional Genomics Laboratory (NCATS/FGL), 2020)
